Assay results as given in patent publication US20240343736A1, “KRAS INHIBITORS” (ELI LILLY AND COMPANY, priority 2023, published 2024).
Some results were stated once for a whole list of compounds, not compound by compound.

What was measured:
HRAS = HRAS (Homo sapiens, UniProt P01112); test: Cellular Phospho-ERK AlphaLISA assay, MEF-HRAS (RAS-less MEFs expressing HRAS only); type: cell-based, mouse; settings: MEF-HRAS cell line; 2 h incubation; read-out: relative IC50, phospho-ERK
KRAS G12V = target: T1, KRAS G12V (Homo sapiens, UniProt P01116, G12V); test: Cellular Phospho-ERK AlphaLISA assay, SW620 cells (KRAS G12V); type: cell-based; settings: for selective inhibition preference for KRas G12V mutant over HRAS and NRAS: SW620 vs MEF-NRAS and MEF-HRAS Phospho-ERK AlphaLISA assays; for IC50: cells expressing KRAS G12V, 2 h incubation, read-out: relative IC50, reduction of phosphorylated ERK-1/2
T1 construct: endogenous in cells; host or cells: SW620 (human colorectal cancer)

KRAS WT = target: T2, KRAS WT (Homo sapiens, UniProt P01116); test: Cellular Phospho-ERK AlphaLISA assay, cells expressing KRAS WT (MKN45, WT KRAS amplification); type: cell-based; settings: 2 h incubation, read-out: relative IC50, reduction of phosphorylated ERK-1/2
T2 construct: or amplification of the KRAS gene; endogenous in cells; host or cells: MKN45 (human gastric cancer, WT KRAS amplification)

KRAS G12C = target: T3, KRAS G12C (Homo sapiens, UniProt P01116, G12C); test: Cellular Phospho-ERK AlphaLISA assay, NCI-1373 cells (KRAS G12C); type: cell-based; settings: cells expressing KRAS G12C; 2 h incubation; read-out: relative IC50, reduction of phosphorylated ERK-1/2
T3 construct: endogenous in cells; host or cells: NCI-1373 (human lung cancer)

KRAS G12D = target: T4, KRAS G12D (Homo sapiens, UniProt P01116, G12D); test: Cellular Phospho-ERK AlphaLISA assay, HPAC cells (KRAS G12D); type: cell-based; settings: cells expressing KRAS G12D; 2 h incubation; read-out: relative IC50, reduction of phosphorylated ERK-1/2
T4 construct: endogenous in cells; host or cells: HPAC (human pancreatic cancer)

NRAS = NRAS (Homo sapiens, UniProt P01111); test: Cellular Phospho-ERK AlphaLISA assay, MEF-NRAS (RAS-less MEFs expressing NRAS only); type: cell-based, mouse; settings: MEF-NRAS cell line; 2 h incubation; read-out: relative IC50, phospho-ERK

Row | Structure (SMILES) | IC50 (HRAS) | selective inhibition preference for KRas G12V mutant over HRAS and NRAS (KRAS G12V) | IC50 (KRAS G12V) | IC50 (KRAS WT) | IC50 (KRAS G12C) | IC50 (KRAS G12D) | IC50 (NRAS)
1 | N#Cc1c(N)sc2c(F)ccc(-c3c4c(c5c(NCc6nc(C7CC7)n[nH]6)nc(OC[C@H]6COCCO6)nc5c3Cl)COC4)c12 (single isomer, unassigned; atropisomer 1) [Example 10] | > 2000 nM | greater than 10 fold | < 500 nM | < 500 nM | < 500 nM | < 500 nM | > 2000 nM
2 | CN1CCO[C@@H](COc2nc(NCc3nc(C4CC4)n[nH]3)c3c4c(c(-c5ccc(F)c6sc(N)c(C#N)c56)c(Cl)c3n2)COC4)C1 (single isomer, unassigned; atropisomer 1) [Example 16] | > 2000 nM | greater than 10 fold | < 500 nM | < 500 nM | < 500 nM | < 500 nM | > 2000 nM
3 | N#Cc1c(N)sc2c(F)ccc(-c3c4c(c5c(NCc6nc(C7CC7)n[nH]6)nc(OC[C@@]67CCCN6C[C@H](F)C7)nc5c3Cl)COC4)c12 (single isomer, unassigned; atropisomer 1) [Example 20] | > 2000 nM | greater than 10 fold | < 500 nM | < 500 nM | < 500 nM | < 500 nM | > 2000 nM
4 | CCc1nnc(CNc2nc(N3CC[C@H](N(C)C)C3)nc3c(Cl)c(-c4ccc(F)c5sc(N)c(C#N)c45)c4c(c23)COC4)o1 (single isomer, unassigned; atropisomer 2) [Example 42A] | > 2000 nM | – | – | – | – | – | > 2000 nM
5 | COC1CN(c2nc(N[C@@H]3CCCN(C)C3=O)c3c4c(c(-c5ccc(F)c6sc(N)c(C#N)c56)c(Cl)c3n2)COC4)CC1N(C)C (single isomer, unassigned; isomer 1) [Example 20C] | > 2000 nM | – | – | – | – | – | > 2000 nM
6 | COC1CN(c2nc(N[C@@H]3CCCN(C)C3=O)c3c4c(c(-c5ccc(F)c6sc(N)c(C#N)c56)c(Cl)c3n2)COC4)CC1NC(C)C (single isomer, unassigned; isomer 2) [Example 24C] | > 2000 nM | – | – | – | – | – | > 2000 nM
7 | CN1CCC[C@H]1COc1nc(NCc2nnc(C3CC3)o2)c2c3c(c(-c4ccc(F)c5sc(N)c(C#N)c45)c(Cl)c2n1)COC3 [Example 1, 2-Amino-4-(5-chloro-1-(((5-cyclopropyl-1,3,4-oxadiazol-2-yl)methyl)amino)-3-(((S)-1-methylpyrrolidin-2-yl)methoxy)-7,9-dihydrofuro[3,4-f]quinazolin-6-yl)-7-fluorobenzo[b]thiophene-3-carbonitrile] | > 2000 nM | greater than 10 fold | < 500 nM | < 500 nM | < 500 nM | < 500 nM | > 2000 nM
8 | CN1CCC[C@H]1COc1nc(NCc2cc(C3CC3)n[nH]2)c2c3c(c(-c4ccc(F)c5sc(N)c(C#N)c45)c(Cl)c2n1)COC3 [Example 2, 2-Amino-4-(5-chloro-1-(((3-cyclopropyl-1H-pyrazol-5-yl)methyl)amino)-3-(((S)-1-methylpyrrolidin-2-yl)methoxy)-7,9-dihydrofuro[3,4-f]quinazolin-6-yl)-7-fluorobenzo[b]thiophene-3-carbonitrile] | > 2000 nM | – | < 500 nM | < 500 nM | < 500 nM | < 500 nM | > 2000 nM
9 | CN1CCC[C@H]1COc1nc(NCc2cc(C3CC3)n[nH]2)c2c3c(c(-c4ccc(F)c5sc(N)c(C#N)c45)c(F)c2n1)COC3 [Example 3, 2-Amino-4-(1-(((3-cyclopropyl-1H-pyrazol-5-yl)methyl)amino)-5-fluoro-3-(((S)-1-methylpyrrolidin-2-yl)methoxy)-7,9-dihydrofuro[3,4-f]quinazolin-6-yl)-7-fluorobenzo[b]thiophene-3-carbonitrile] | > 2000 nM | greater than 10 fold | < 500 nM | < 500 nM | < 500 nM | – | > 2000 nM
10 | CN1CCC[C@H]1COc1nc(NCc2[nH]nc3c2CCCC3)c2c3c(c(-c4ccc(F)c5sc(N)c(C#N)c45)c(F)c2n1)COC3 [Example 4, 2-Amino-7-fluoro-4-(5-fluoro-3-(((S)-1-methylpyrrolidin-2-yl)methoxy)-1-(((4,5,6,7-tetrahydro-2H-indazol-3-yl)methyl)amino)-7,9-dihydrofuro[3,4-f]quinazolin-6-yl)benzo[b]thiophene-3-carbonitrile] | > 2000 nM | greater than 10 fold | < 500 nM | < 500 nM | < 500 nM | – | > 2000 nM
11 | CN1CCC[C@H]1COc1nc(NCc2nc(C3CC3)n[nH]2)c2c3c(c(-c4ccc(F)c5sc(N)c(C#N)c45)c(F)c2n1)COC3 [Example 5, 2-Amino-4-(1-(((3-cyclopropyl-1H-1,2,4-triazol-5-yl)methyl)amino)-5-fluoro-3-(((S)-1-methylpyrrolidin-2-yl)methoxy)-7,9-dihydrofuro[3,4-f]quinazolin-6-yl)-7-fluorobenzo[b]thiophene-3-carbonitrile] | > 2000 nM | greater than 10 fold | < 500 nM | < 500 nM | < 500 nM | < 500 nM | > 2000 nM
12 | CN1CCC[C@H]1COc1nc(NCc2[nH]nc3c2CCCC3)c2c3c(c(-c4ccc(F)c5sc(N)c(C#N)c45)c(Cl)c2n1)COC3 [Example 6, 2-Amino-4-(5-chloro-3-(((S)-1-methylpyrrolidin-2-yl)methoxy)-1-(((4,5,6,7-tetrahydro-2H-indazol-3-yl)methyl)amino)-7,9-dihydrofuro[3,4-f]quinazolin-6-yl)-7-fluorobenzo[b]thiophene-3-carbonitrile] | > 2000 nM | greater than 10 fold | < 500 nM | < 500 nM | < 500 nM | < 500 nM | > 2000 nM
13 | CN1CCC[C@H]1COc1nc(NCc2nc(C3CC3)n[nH]2)c2c3c(c(-c4ccc(F)c5sc(N)c(C#N)c45)c(Cl)c2n1)COC3 [Example 8, 2-Amino-4-(5-chloro-1-(((3-cyclopropyl-1H-1,2,4-triazol-5-yl)methyl)amino)-3-(((S)-1-methylpyrrolidin-2-yl)methoxy)-7,9-dihydrofuro[3,4-f]quinazolin-6-yl)-7-fluorobenzo[b]thiophene-3-carbonitrile] | > 2000 nM | greater than 10 fold | < 500 nM | < 500 nM | < 500 nM | – | > 2000 nM
14 | N#Cc1c(N)sc2c(F)ccc(-c3c4c(c5c(NCc6nc(C7CC7)n[nH]6)nc(OC[C@H]6COCCO6)nc5c3Cl)COC4)c12 [Example 9, 4-(3-(((R)-1,4-Dioxan-2-yl)methoxy)-5-chloro-1-(((3-cyclopropyl-1H-1,2,4-triazol-5-yl)methyl)amino)-7,9-dihydrofuro[3,4-f]quinazolin-6-yl)-2-amino-7-fluorobenzo[b]thiophene-3-carbonitrile] | > 2000 nM | greater than 10 fold | < 500 nM | < 500 nM | < 500 nM | < 500 nM | > 2000 nM
15 | N#Cc1c(N)sc2c(F)ccc(-c3c4c(c5c(NCc6noc7c6CCCC7)nc(OC[C@H]6COCCO6)nc5c3Cl)COC4)c12 [Example 26, 4-(3-(((R)-1,4-Dioxan-2-yl)methoxy)-5-chloro-1-(((4,5,6,7-tetrahydrobenzo[d]isoxazol-3-yl)methyl)amino)-7,9-dihydrofuro[3,4-f]quinazolin-6-yl)-2-amino-7-fluorobenzo[b]thiophene-3-carbonitrile] | > 2000 nM | greater than 10 fold | < 500 nM | – | – | – | > 2000 nM
16 | CN1CCN([C@@H]2CCN(c3nc(N[C@@H]4CCCN(C)C4=O)c4c5c(c(-c6ccc(F)c7sc(N)c(C#N)c67)c(Cl)c4n3)COC5)C2)CC1 [Example 32C, 2-Amino-4-(5-chloro-1-(((R)-1-methyl-2-oxopiperidin-3-yl)amino)-3-((R)-3-(4-methylpiperazin-1-yl)pyrrolidin-1-yl)-7,9-dihydrofuro[3,4-f]quinazolin-6-yl)-7-fluorobenzo[b]thiophene-3-carbonitrile] | > 2000 nM | – | – | – | – | – | > 2000 nM
17 | Cc1nc(CNc2nc(O[C@@H](C)[C@@H]3CCCN3C)nc3c(F)c(-c4ncc(F)c5sc(N)c(C#N)c45)c4c(c23)COC4)no1 [Example 35C, 2-Amino-7-fluoro-4-(5-fluoro-1-(((5-methyl-1,2,4-oxadiazol-3-yl)methyl)amino)-3-((S)-1-((S)-1-methylpyrrolidin-2-yl)ethoxy)-7,9-dihydrofuro[3,4-f]quinazolin-6-yl)thieno[3,2-c]pyridine-3-carbonitrile] | > 2000 nM | – | – | – | – | – | > 2000 nM
